## Binding screen against folded nucleic acids

From ROBIN, a set of small-molecule microarray screens (doi:10.1002/anie.202211358).

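The test is a small-molecule microarray: each compound is printed twice on a reactive slide, and binding shows as fluorescence of the labelled oligonucleotide after washing. The data file lists only calls. An earlier report of the laboratory on the PreQ1, TPP and SAM-II riboswitches (doi:10.1038/s41467-019-09493-3) used 1 µM RNA for 2 h and required a mean Z-score above 3 (spot signal-to-noise against the whole library), a score well above that on a control array, and duplicate spots agreeing (coefficient of variation under 100); it then also set aside compounds that hit other targets, which this list keeps. The cut-offs behind this list may differ. A missing hit is not proof of no binding, and a hit is not a measured affinity.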
Key: active = hit, inactive = tested without a hit.
The compounds are a random part of those screened.
A target missing from an entry has no call listed here.

Targets, with sequences 5′ to 3′:
T1: TPP riboswitch RNA three-way junction, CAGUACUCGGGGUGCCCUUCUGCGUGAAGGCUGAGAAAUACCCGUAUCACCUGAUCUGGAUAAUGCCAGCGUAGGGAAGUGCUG. About 24,000 compounds screened, about 160 hits.
T2: PreQ1 riboswitch RNA pseudoknot, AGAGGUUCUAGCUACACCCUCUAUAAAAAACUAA. From B. subtilis. About 24,000 compounds screened, about 170 hits.
T3: SAM-II riboswitch RNA pseudoknot, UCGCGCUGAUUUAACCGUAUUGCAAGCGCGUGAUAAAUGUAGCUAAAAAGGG. About 21,000 compounds screened, about 200 hits.

For CCn1c(C)cc(C(=O)N2C[C@@H](CN(C)CCOC)[C@@H](CO)C2)c1C the calls were T1: inactive; T2: inactive; T3: inactive.
For CC(C)Cc1cc(C(=O)N[C@H]2CC[C@H]2NC2CCCCC2)n(C)n1 the calls were T1: inactive; T2: inactive; T3: inactive.
For O=C1C[C@@H](c2ccc(O)cc2)Oc2cc(O)cc(O)c21 the calls were T1: inactive; T2: inactive; T3: inactive.
For Cc1ccc(C=CC(=O)O)cc1S(=O)(=O)NCCO the calls were T1: inactive; T2: inactive; T3: inactive.
For OC[C@H]1CCN(Cc2ccc(Oc3ccc(Cl)cc3)cc2)C[C@H]1O the calls were T1: inactive; T2: active; T3: inactive.
For CCSc1nc(-c2cccc(C)c2)nc2c1Cc1c(CO)cnc(C)c1O2 the calls were T1: inactive; T2: inactive.
For CC(C)c1ccc(C(O)Cc2nc3ccccc3n2C)cc1 (stereo unspecified) the calls were T1: inactive; T2: inactive; T3: inactive.
For CCOc1nc(NCCC2=CCCCC2)nc(N2CCOCC2)n1 the calls were T1: inactive; T2: inactive; T3: inactive.
For Cc1nc(CCN)n[nH]1 the calls were T1: inactive; T2: inactive; T3: inactive.
For O=C(O)c1cc(O)c2c(c1)C(=O)c1cccc(O)c1C2=O the calls were T1: inactive; T2: inactive; T3: active.
For CCc1ccc(OCC(O)Cn2c(C3CC3)nc3ccccc32)cc1 (stereo unspecified) the calls were T1: inactive; T2: inactive.
For COc1ccc(CNCCCc2nc3ccccc3[nH]2)cc1 the calls were T1: inactive; T2: inactive; T3: inactive.
For CN1CCCN(C[C@@H]2CN(C(=O)C3CCOCC3)C[C@@H]2CO)CC1 the calls were T1: inactive; T2: inactive; T3: inactive.
For CCC(O)Cn1nc(-c2ccc(C)o2)nc1Cc1cccc(OC)c1 (stereo unspecified) the calls were T1: inactive; T2: inactive; T3: inactive.
For Cc1ccc(-c2nc(-c3nccc4ccccc34)oc2-c2ccccc2)cc1 the calls were T1: inactive; T2: inactive; T3: inactive.
For O=C1C=C(NCc2ccccc2)C2(CCCCC2)O1 the calls were T1: inactive; T2: inactive; T3: inactive.
For COC(=O)c1c(N)sc(C)c1-c1ccc(C)cc1 the calls were T1: inactive; T2: inactive.
For O=C(C(c1cccnc1)N1CCOCC1)N1CCC(O)(CO)CC1 (stereo unspecified) the calls were T1: inactive; T2: inactive; T3: inactive.
For COc1cc(C2OCC3(CO)C(C)C=C(C)C2C3C)ccc1O (stereo unspecified) the calls were T1: inactive; T2: inactive; T3: inactive.
For Cc1ccc(C(=O)NC(C)(C)c2nnc(N)s2)cc1N1CCNC1=O the calls were T1: inactive; T2: inactive; T3: inactive.
For CCOc1cccc(CN(CCO)CC2CC2)c1 the calls were T1: inactive; T2: inactive; T3: inactive.
For CC(C)C1C(C#N)=C(N)Oc2c1c(=O)oc1ccccc21 (stereo unspecified) the calls were T1: inactive; T2: inactive; T3: inactive.
For COC(=O)c1cccc(Nc2cc(-c3ccccc3)ncn2)c1 the calls were T1: inactive; T2: inactive.
For Cc1nc2c(c(=O)[nH]1)CCN(C(=O)c1ccc3c(c1)ncn3CCO)C2 the calls were T1: inactive; T2: inactive; T3: inactive.

For reference, 3 entries once more:

structure	T1	T2	T3
CCOc1cccc(CN(CCO)CC2CC2)c1	inactive	inactive	inactive
CC(C)Cc1cc(C(=O)N[C@H]2CC[C@H]2NC2CCCCC2)n(C)n1	inactive	inactive	inactive
Cc1ccc(C(=O)NC(C)(C)c2nnc(N)s2)cc1N1CCNC1=O	inactive	inactive	inactive